# Library screen at single concentrations

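Assay of Toxoplasma gondii numbers, read through their beta-galactosidase reporter with a colour substrate. Concentration: 50 µM. Higher reads as fewer parasites (inferred from which compounds were picked for retests). Size under these conditions: about 18,000 compounds, about 170 of them at 50% or above in at least one test.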

Values are the deposited “Percent Effect”, in %. The controls that fix the scale are not given in the record; negative values are as filed. This is an unselected part of the compounds tested.

SMILES,Percent Effect
C=C(Cl)CN1CCN(CC(=C)Cl)C(C(=O)N(C)C)C1 (configuration not stated),6.915
CN[C@H](COC)C(N)=O,-2.407
NC(=O)COc1cccc(NC(=O)CSC(F)(F)F)c1,-2.59
CNC(=O)C1CCCCN1C(=O)c1ccc(Cl)o1 (configuration not stated),-9.088
COC(=O)CN1CCN(c2ccccc2O)CC1,-11.88
CCc1ccc(C(=O)NCc2ccc(C(=O)NC)o2)[nH]1,-3.694
CN1CCC(NC(=O)C2CCCCC2)CC1,-23.63
O=C1CCCN1c1nc2ccccc2s1,-3.49
NCc1nc(-c2ccccn2)cs1,-2.115
CC(CNC(=O)c1cnccn1)N1CCCC1 (configuration not stated),8.567
CCc1ccc(C(=O)NC2CNC[C@@H]2OC)o1 (some centres not stated),-5.148
NC1CC(N2CCOCC2)C1 (configuration not stated),-8.316
NCc1cc(Oc2cccc(Cl)c2)ccn1,4.294
Cc1cc(CNC(=O)N[C@@H](C)C(=O)N(C)C)ccc1Cl,-8.716
CCc1nnc(N2CCN(C(=O)c3ccco3)CC2)o1,-8.924
COc1ccc(C(=O)NC(O)C(=O)c2cccs2)cc1 (configuration not stated),18.74
CCN1CC2(CCN(CC3CCCCO3)CC2)CC1=O (configuration not stated),-15.71
N#Cc1cccnc1N1CCOC(c2nccs2)C1 (configuration not stated),-32.5
Nc1[nH]nc(C(=O)N2CCOC3(CCCC3)C2)c1Cl,-4.805
CC(CCN(C)C)NC(=O)Nc1ccc(N(C)C)nc1 (configuration not stated),-6.374
COc1ccnc(CN)c1,-4.624
CCOc1cccc(CN2C(=O)CCC2=O)n1,-9.446
NS(=O)(=O)NCC1(c2ccc(Br)cc2)CCOCC1,-3.705
COc1ncc(C)cc1NC(=O)c1cc[nH]n1,4.368
COc1cccc(NC(=O)C2CCCN(C)C2)c1 (configuration not stated),-10.1
CC(C)c1nnc(CN2C[C@@H]3CCC[C@H](C2)C(=O)N3)o1,-0.6998
CN(C(=O)C(C)(C)c1ccccc1)C1CCS(=O)(=O)C1 (configuration not stated),7.167
Cc1noc(C)c1N(C)C(=O)c1ccc(Cl)cn1,12.31
CC(=O)NC1CN(C(=O)NCc2ccc(Br)c(F)c2)C1,-5.184
CCOC(=O)c1cc(NC(=O)C2CC2)c[nH]1,-0.3248
CC(C)(C)NC(=O)CNC(=O)NCCc1cccs1,-13.72
CC(=O)c1cc(C(=O)NCc2cn3c(n2)SCC3)cs1,-5.715
CC(C)N1CCC(NC2CCC3(CC2)OCCO3)CC1,3.513
COc1ccc(NC(=O)NC2CCNC2=O)c(C)c1 (configuration not stated),-1.933
NCCCc1nc2ccccc2o1,-5.573
NC(=O)c1ccc(-c2nc(C3CCCC3)no2)o1,-0.6463
COc1ccc2[nH]c(C(C)N)nc2c1 (configuration not stated),-5.93
NC(=O)C1CCN(CC(=O)Nc2cccc(F)c2)CC1,-3.053
CC(C)OCCC(=O)N1CCC(O)(C(F)(F)F)CC1,-0.2412
COC(=O)c1cnc(I)n1C,-6.542
CC(C)(C)C1CS(=O)(=O)CCN1 (configuration not stated),-11.91
c1ccc(CNCCNC2CC2)cc1,-5.708
NC1CS(=O)(=O)Cc2ccccc21 (configuration not stated),-2.637
CC(CCN)CCO (configuration not stated),29.53
N#CCCN1CCCN(Cc2ccc(C#N)cc2)CC1,-3.645
N#CC1CN(Cc2ccccc2)CCO1 (configuration not stated),0.07905
CSCCC(O)C(=O)NCCc1cnccn1 (configuration not stated),-6.593
NCCc1cc(O)cc(O)c1,21.38
CC(=O)NCCCNC(=O)Nc1ccc(F)cc1C,5.718
CN(C)c1cc(CO)ccn1,14.07
Cc1ccsc1CNC(=O)C(NC(N)=O)C(C)C (configuration not stated),-4.92
O=C(NCc1ccon1)c1ccc(Br)c(O)c1,30.35
CNC(=O)Cc1noc(COC2CCCCC2)n1,-7.902
CCC(CC)C(=O)NCC(C)(O)CSC (configuration not stated),-8.455
CCCn1ccnc1CNC(=O)[C@H]1CC[C@@H](O)CC1,3.641
NCc1cccc(C(=O)NCC2CCCO2)c1 (configuration not stated),12.82
CC(C)(C)OC(=O)N1C[C@@H]2CCN[C@@H]2C1,38.4
CS(=O)(=O)Cc1ccc(C(=O)Nc2ccccc2)cc1,-5.365
CCS(=O)(=O)NCCNC(=O)c1ccccc1,21.77
CN(C)Cc1ccc(C(=O)NCCN(C)S(C)(=O)=O)o1,4.318
CC(CN)CNC(=O)c1ccc(C(F)(F)F)cc1 (configuration not stated),3.956
C[C@@H]1CNC[C@H]1c1nc(-c2ccncc2)no1,1.432
CCc1ccccc1CN1C(=O)CCC1=O,-3.679
Cc1n[nH]c(C)c1CN(CCC#N)CCC#N,-6.744
CN1CCCN(C(=O)c2ccco2)c2ccccc21,-1.432
COC(=O)N1CC(NC(=O)c2cc(C(C)=O)c[nH]2)C1,-20.73
CNC(=O)CNC(=O)c1csc(-c2cc(Br)cs2)n1,-3.539
CCOc1cc(CN(C)CCN(C)C)ccc1O,-1.115
COc1cc(NCC2(N(C)C)CCSC2)ncn1 (configuration not stated),-7.363
Cc1cc(N(CCO)Cc2cccnc2)nc(C)n1,-9.161
CCN(CC)CCn1ccc2ncccc2c1=O,-6.993
COC(=O)C1(NC(=O)c2ccco2)CCCCC1,-1.153
CN(C)c1nccc(NC(=O)c2ccc(Br)o2)n1,-5.598
CC(C)(C)NC(=O)CSc1cnn[nH]1,-4.439
CC(C)C1CN(C)CCN1Cc1ccnn1C (configuration not stated),-4.368
COC(=O)Cn1cnc2c(C)cccc2c1=O,0.7415

Some entries from above, unchanged:

For Cc1noc(C)c1N(C)C(=O)c1ccc(Cl)cn1 the result was 12.31%.
For NC(=O)C1CCN(CC(=O)Nc2cccc(F)c2)CC1 the result was -3.053%.
For CCc1ccc(C(=O)NC2CNC[C@@H]2OC)o1 (some centres not stated) the result was -5.148%.
For Nc1[nH]nc(C(=O)N2CCOC3(CCCC3)C2)c1Cl the result was -4.805%.
For COC(=O)CN1CCN(c2ccccc2O)CC1 the result was -11.88%.

Measurements from “University of Dundee, Small-Polar-MMV Screening Library” (2021), ChEMBL document CHEMBL3988442.